Experiments:
[1] = Reversed-phase TLC on RP-2 silanized plates (Rf); assay type: physicochemical; details: silica gel 60 RP-2 F254 silanized; water:methanol:acetonitrile 60:20:20, ammonium acetate pH 7.4
[2] = Normal-phase TLC on silica gel 60 F254 (Rf); assay type: physicochemical; details: water:methanol:acetonitrile 60:20:20, ammonium acetate pH 7.4
[3] = plasma; cited from earlier work
[4] = HPLC on IAM (immobilized artificial membrane) column, retention factor; assay type: physicochemical; details: IAM.PC.DD.2 column

CCn1cc(C(=O)O)c(=O)c2cc(F)c(N3CCN(C)CC3)cc21 [pefloxacin]
RP (Rf from RP-2 TLC plate) [1]: 0.76

CCC[C@@H]1C[C@@H](C(=O)N[C@@H]([C@H]2O[C@H](SC)[C@H](O)[C@@H](O)[C@H]2O)[C@H](C)Cl)N(C)C1 [clindamycin]
NP (Rf from NP TLC plate) [2]: 0.69
PB (protein binding) [3]: 0.93
k(IAM) retention factor ([4]; 10 mM phosphate buffer pH 7.4:acetonitrile 80:20): 11.34
logkIAM ([4]; logarithm of retention factor, phosphate buffer pH 7.4:acetonitrile 80:20): 1.05
RP (Rf from RP-2 TLC plate) [1]: 0.25
